Measurements: patent publication US20240285753A1
No constants are given. Whether binding was seen depends on the method and setting. Binding calls can cover weak binding; strength is not graded here.

B1: DH1497 (antibody, V domains shown)
VH: QVQLVQSGGGLAQPGESLRLSCAASGFTFSSYAMTWVRQAPGKGLEWVSSISGKGENIEYAESVKGRFTISRDNAKNTVDLEMNSLRAEDTATYFCAKHIYGAFIVVPNTLYDALDVWGQATKVTVSS
VL: EIVLTQSPGTLSLSPGERATLSCRASQSVSRNYLAWYQQKPGQAPRILVYDASNRAIGIPDRFSGSGSGTDFTLTISRLEPEDFAVYYCQQYGSSPGTFGQGTRLEIK
B2: DH1491 (antibody, V domains shown)
VH: QVQLVQSGGGLVQPGGSLRLSCATSGFNFRAFAMSWVRQAPGKGLEWAAVMSGTDDGTYYVESVKGRFTIFRDNSENTVYLQMNSLRADDSAIYYCAKGTLGHCSGVDCYYLDYWGRGTLVTVSS
VL: DIVLTQSPATLSLSPGERATLSCRASQSVGTYVAWYQHKVGQAPRLLIYDASTRATDIPARFSGSGSGTDFTLTITSLEPEDVAIYYCQQRVNLVTFGGGTKLEIK
B3: DH1495 (antibody, V domains shown)
VH: EVQLVESGGGLVQPGGSLRLSCAASGFTFDNYAMGWVRQPPGKGLEWVSSFSGRGVSTYYADSVKGRFTVSRDSSKNTLFLQMNYLRVEDTAVYYCATYPYDILTGYYGAFDYWGQGALVTVSS
VL: DIQLTQSPSTLSASVGDRVTITCRASQTIDTWLAWYQQKPGKAPKLLIYGASSLQSGVPSRFSASGSGTEFTLTISSLQPDDFAIYYCQQYKDYSTFGQGSKVEFM
B4: DH1499 (antibody, V domains shown)
VH: QVQLQESGGGLVKPGGSLRLSCAASGFTFSSYSMNWVRQAPGKGLEWVSSISSSSSYIYYADSVKGRFTISRDNAKNSLYLQMNSLRAEDTAVYYCARGIIDYGDYFDYWGQGTLVTVSS
VL: EIVLTQSPDTLSLSPGERATVSCRASQSVGAGYVAWYQQRPGQPPRLLIYGASVRATGIPDRFSGSGSGTDFSLTINRVEPEDFAVYYCQNYASSPPRYTFGQGTKLEIK
B5: DH1496 (antibody, V domains shown)
VH: QVQLQQWGAGLLKPSETLSLTCSFYGGSFSGYCWSWIRQSPGKGLEWIGEINHSGSTNYNPSLKTRVTILIDTSNNQFSLRLSSVTAADTAVYYCARERAIRRCTSTSCYRVGGVAGLDVWGQGTTVSVSS
VL: DIVMTQSPSSLSASVGDRVTITCQASRDIYKYLNWYQQKPGQAPKLLISDASNLETGVPSRFSGSGSGTDFTFTISSLQPEDIAAYYCQQYDNPLITFGQGTRLEIK
B6: DH1501.3 (antibody, V domains shown)
VH: QVQLVQSGAEVKKPGASVRLSCKASGDTFTNEYVQWVRQAPGQGLEWMGLINPSGSGTAFARNFQGRVSMTRDTSTRTVYMDLTSLRYEDTAVYYCARMSRAGTFDLWGQGTMVTVSS
VL: EIVLTQSPDTLSLSLGERATLFCRASETIDSRYLAWYQQKPGRAPRLLMSGTSVRATGIPDRFSGSGSGTDFTLTITRLEPEDFAVYYCQQYGSSPPRYTFGQGTKLAMK
B7: DH1508 (antibody, V domains shown)
VH: QVQLVESGGGVVQPGKSLKLSCAASGFTFSTYSMHWVRQAPGKGLEWVAIISYDGRNKYYANSVKGRFTISRDNSKNTLYLEINNLRPQDTAVYYCATDASNVEVPGKFAPLDKWGQGTLVTVSS
VL: EIVMTQSPATLSVSPGERATLSCRASQSVSSDLAWYQQKPGQAPRLLIYGATTRATGVPARFSGSGSGAEFTLTISSLQSGDFAVYYCQQYNDWPLITFGQGTRLEIK

Biological target: OC43 spike (2P) (human coronavirus OC43)
Assay: ELISA, coated spike, mAb titrated

Row | Binder | binding
1 | B1 | binds
2 | B2 | binds
3 | B3 | binds
4 | B4 | binds
5 | B5 | binds
6 | B6 | binds
7 | B7 | binds
